Reference: PubChem BioAssay AID652272 (Drosophila RNAi Screening Center, 2013)
The deposit covers about 21,000 reagents; below is an unselected part of those that have a named target and a result. Of all reagents, 503 (2.4%) got an active call. 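Raw plate light values, not normalised; calls rest on replicate z-scores that were not deposited; hits include reporter decreases as well as increases.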 Unmarked entries are inactive. Reagents against one gene are numbered here. Not given: the amount of reagent, the time to read-out.

Screen: 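Finding fly genes that regulate Hedgehog signal transduction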 (primary screen)
Cell system: Drosophila clone 8 (Cl8) cells
Knock-down reagent: long dsRNA against Drosophila genes
Measured: 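Plate reader light from a firefly reporter under a ptc promoter fragment that responds to Hedgehog, with Renilla light as transfection reference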
Direction: firefly Hh reporter signal: higher = more ptc reporter light; Renilla reference signal: higher = more Renilla control light
Call rule: 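Hit when the z-score averaged over two replicates is under -2 or over +3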
Calls: active = hit: reporter lowered or raised; inactive = not a hit

Gene | dsRNA no. | firefly Hh reporter signal, replicate 1 | firefly Hh reporter signal, replicate 2 | firefly Hh reporter signal, replicate 3 | Renilla reference signal, replicate 1 | Renilla reference signal, replicate 2
CG43347 | 1 | 86888 | 2.52e5 | – | 2224 | 8722
CG43347 | 2 | 2.55e5 (active) | 90088 | 2.70e5 | 2130 | 2418
CG43896 | 1 | 59786 | 52276 | 42276 | 4736 | 3106
CG43896 | 2 | 72280 | 44855 | 43255 | 4257 | 3202
Pex14 | 1 | 83977 | 1.09e5 | – | 3810 | 3818
HERC2 | 1 | 66354 | 2.01e5 | – | 1379 | 9493
Ir68a | 1 | 56514 | 43219 | 46944 | 4034 | 3527
CG30323 | 1 | 43232 | 75158 | – | 859 | 5152
ClC-c | 1 | 64371 | 48048 | – | 2635 | 1988
CCT7 | 1 | 48867 | 92882 | – | 2512 | 2851
beag | 1 | 1.57e5 | 1.26e5 | – | 6089 | 4155
Ekar | 1 | 67460 | 1.99e5 | – | 2387 | 7620
HDAC3 | 1 | 48352 (active) | 47621 | – | 3461 | 3323
jhamt | 1 | 1.07e5 | 58812 | – | 2779 | 4464
BthD | 1 | 1.26e5 | 3.63e5 | – | 3922 | 14032
CG16711 | 1 | 37549 | 55100 | 52449 | 5547 | 3387
skl | 1 | 1.36e5 | – | – | 4461 | 3668
Sap47 | 1 | 1.03e5 | 64508 | – | 2592 | 2308
klhl10 | 1 | 1.14e5 | 2.84e5 | – | 3067 | 10345
klhl10 | 2 | 5.86e5 | 1.88e5 | – | 33942 | 3937
klhl10 | 3 | 70381 | 1.66e5 | – | 2626 | 7684
klhl10 | 4 | 1.33e5 | 2.71e5 | – | 5165 | 12170
Ilp8 | 1 | 98980 | – | – | 5165 | 3057
mRpL55 | 1 | 4.39e5 | 83297 | – | 24012 | 2151
ImpE2 | 1 | 57419 | 66518 | – | 2619 | 2561
Csp | 1 | 1.30e5 | 1.00e5 | – | 5667 | 3482
sNPF-R | 1 | 92246 | 1.31e5 | – | 3285 | 3645
CG9799 | 1 | 95973 | 48586 | – | 4304 | 1700
hale | 1 | 61569 | 99200 | – | 2182 | 2832
Atx2 | 1 | 16345 (active) | 13965 | – | 1371 | 769
Pc | 1 | 68076 | 62614 | – | 2722 | 2552
HisCl1 | 1 | 1.39e5 | 75110 | – | 4989 | 2928
CG6023 | 1 | 64408 | 71034 | – | 1722 | 1768
Phax | 1 | 1.30e5 | 61496 | – | 3685 | 5968
Syt14 | 1 | 1.32e5 | 1.48e5 | – | 4498 | 8391
tara | 1 | 1.06e5 | 1.23e5 | – | 3017 | 3228
beat-IIIa | 1 | 1.29e5 | 2.89e5 | – | 3788 | 13456
beat-IIIa | 2 | 99979 | 2.14e5 | – | 2969 | 10513
beat-IIIa | 3 | 1.27e5 | 77366 | – | 3037 | 6097
CG1979 | 1 | 95971 | 61721 | – | 4065 | 2360
Elba3 | 1 | 1.17e5 | 1.27e5 | – | 4736 | 5051
CG14717 | 1 | 65546 | 71132 | – | 2034 | 1888
CG31121 | 1 | 5.28e5 | 1.21e5 | – | 27600 | 3464
CG31121 | 2 | 6.15e5 | 1.01e5 | – | 31360 | 3481
CG32694 | 1 | 83857 | 1.45e5 | – | 2900 | 4890
CG32694 | 2 | 78312 | 2.13e5 | – | 1146 | 9597
Khc-73 | 1 | 1.22e5 | 65520 | – | 5474 | 3308
botv | 1 | 1.12e5 | 88242 | – | 4549 | 3109
Oatp58Dc | 1 | 45776 | 61991 | – | 2163 | 2212
CG33080 | 1 | 96016 | 2.27e5 | – | 3933 | 9457
CG33080 | 2 | 98617 | 2.75e5 | – | 3773 | 9002
CG33080 | 3 | 72396 | 2.08e5 | – | 2485 | 8348
me31B | 1 | 45732 | 50289 | – | 2185 | 1808
Octalpha2R | 1 | 49531 | 2.50e5 | – | 10962 | 5963
Octalpha2R | 2 | 4.62e5 | 1.28e5 | – | 20421 | 3560
cerv | 1 | 45040 | 2.49e5 | – | 1597 | 9616
Sgp | 1 | 86624 | 46674 | – | 3463 | 1675

Quoted from above (9 entries):
Gene | dsRNA no. | firefly Hh reporter signal, replicate 1 | firefly Hh reporter signal, replicate 2 | firefly Hh reporter signal, replicate 3 | Renilla reference signal, replicate 1 | Renilla reference signal, replicate 2
CG43347 | 2 | 2.55e5 (active) | 90088 | 2.70e5 | 2130 | 2418
CG43896 | 1 | 59786 | 52276 | 42276 | 4736 | 3106
CG43896 | 2 | 72280 | 44855 | 43255 | 4257 | 3202
Pex14 | 1 | 83977 | 1.09e5 | – | 3810 | 3818
HERC2 | 1 | 66354 | 2.01e5 | – | 1379 | 9493
Ir68a | 1 | 56514 | 43219 | 46944 | 4034 | 3527
CG30323 | 1 | 43232 | 75158 | – | 859 | 5152
ClC-c | 1 | 64371 | 48048 | – | 2635 | 1988
CCT7 | 1 | 48867 | 92882 | – | 2512 | 2851
